# Test results from PubChem BioAssay AID504834 (National Center for Advancing Translational Sciences (NCATS), 2011).
# The campaign covered roughly 320,000 compounds. About 22,000 (6.9%) were called active. Calls follow the shape of the dose curve; as a rule, active = well fitted inhibition curve with a large enough effect; inconclusive = small, poorly fitted or top-dose-only effect, or another doubt; inactive = no such curve, though single readings can be large or run the other way. Inconclusive means that the source gave no clear call. A potency beside an inconclusive call is a rough fit, not a confirmed value.
# Test: Primary qHTS for delayed death inhibitors of the malarial parasite plastid, 96 hour incubation
# Conditions: P. falciparum luciferase reporter growth; series mostly up to 28.7 µM
# Summary of the method: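 Luminescence readout: decreased luciferase signal marks inhibited growth of reporter-expressing P. falciparum in infected red cells (2% hematocrit, 0.05% parasitemia final), exposed to compound two generations (96 h, 37 C, 5% CO2).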
# Potency is read from the fitted curve at half-maximal effect.
row,SMILES,Potency
1,COc1cc(/C=C2\C(=N)N3N=C(S(C)(=O)=O)SC3=NC2=O)cc(OC)c1OCCOc1ccc(C)cc1,"inconclusive: 18.5 µM [inhibitor, single point]"
2,COc1cccc(C2C3=C(N=c4s/c(=C\c5ccc(OCC(=O)O)cc5)c(=O)n42)c2ccccc2CC3)c1 (configuration not stated),"inconclusive: 2.33 µM [inhibitor, full curve]"
